Measurements published in publication doi:10.1101/841668.
No constants are given. Whether binding was seen depends on the method and setting. For part of these data: In cells and extracts the contact can be indirect. Some binding calls cover weakened binding; strength is not graded here.

Tests used:
[1] = target: p53 (53kDa tumor protein), endogenous (human (endogenous in U2OS, HCT116 p53+/+, MCF-7)) (UniProt P04637); assay: native gel or EMSA
[2] = target: p53-DsRed Ex (UniProt P04637); assay: FRET or BRET
[3] = target: p53 (53kDa tumor protein), endogenous (human (endogenous in U2OS, HCT116 p53+/+, MCF-7)) (UniProt P04637); assay: FRET or BRET

binding [1]	binding [2]	binding [3]	Substance
binds	–	–	Hypoxia-inducible factor-1 beta (HIF-1β), endogenous (from UniProt P27540 1-789)
–	binds	binds	EYFP-HIF-1β (from UniProt P27540 1-789)
